Out of some 350,000 compounds screened, about 1,200 (0.34%) were called active. The shares of active, inactive and inconclusive entries below differ from those in the screen. The call rests on the fitted dose curve; in most records, active means well fitted inhibition curve with a large enough effect; inconclusive means small, poorly fitted or top-dose-only effect; inactive means no such curve, though single readings can be large or run the other way. A potency beside an inconclusive call is a rough fit, not a confirmed value.
Each compound was assayed against DNA repair nuclease/redox regulator APEX1 (Homo sapiens) (UniProt P27695) (assay: qHTS Assay for Inhibitors of the Human Apurinic/apyrimidinic Endonuclease 1 (APE1)). Details: recombinant APE1, TAMRA/BHQ-2 abasic DNA cleavage fluorescence; activity change, negative = inhibition: at 65.8 µM (top of the series).
Procedure, shortened: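 Endonuclease cleavage of a quenched abasic-site DNA duplex (50 nM) by APE1 (0.75 nM) was tracked by TAMRA dequenching. Compounds were preincubated with enzyme 15 min at room temperature; data normalized to buffer-only and DMSO wells plus NSC13755 control.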
Further: nearly all actives have a fitted effect of over 55% in size.
Potency means the concentration at half of the fitted maximal effect.
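Wherever activity change, negative = inhibition is given: plate controls were vehicle for no effect and reference inhibitor for full effect.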

The chains behind the UniProt entries cited, without tags or fusion partners.
UniProt P27695, whole entry, looked up: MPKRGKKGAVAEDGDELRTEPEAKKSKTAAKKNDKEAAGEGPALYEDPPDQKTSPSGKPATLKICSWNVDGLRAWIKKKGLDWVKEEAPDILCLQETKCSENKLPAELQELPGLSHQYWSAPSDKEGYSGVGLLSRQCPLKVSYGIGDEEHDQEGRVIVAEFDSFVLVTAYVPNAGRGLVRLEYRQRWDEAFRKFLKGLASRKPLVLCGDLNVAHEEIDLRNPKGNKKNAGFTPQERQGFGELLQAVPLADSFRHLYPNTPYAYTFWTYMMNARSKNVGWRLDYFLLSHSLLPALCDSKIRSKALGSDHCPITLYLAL

Row | SMILES | activity change, negative = inhibition | Potency
1 | Cc1ccc2occ(C3N[C@H](C(=O)O)CS3)c(=O)c2c1 (stereo partly drawn) | inactive: 0.873% | –
2 | COc1ccc(C(=C2C(=O)Nc3ccccc32)c2ccc(OC)cc2)cc1 | – | inconclusive: 15.8 µM [inhibitor, single point]
3 | Cc1cc(N(C)C)ccc1N=Nc1ccc2ncccc2c1 | – | inconclusive: 12.6 µM [inhibitor, partial curve, poor fit]
4 | Cn1cc(NC(=O)c2cc(NC(=O)c3cc(NC=O)cn3C)cn2C)cc1C(=O)NCCC(=N)N | inactive: 0.476% | –
5 | Oc1ccccc1Oc1c(F)c(F)nc(N2CCCC2)c1F | – | inconclusive: 35.5 µM [inhibitor, partial curve]
6 | C#CCOCCOCCOCCNc1nc(N2CCN(C(=O)[C@H]([C@@H](C)O)n3cc(CCCCN)nn3)CC2)nc(N2CCN(C(=O)[C@H](Cc3ccc(O)cc3)n3cc(CCO)nn3)CC2)n1 | inactive: 3.38% | –
7 | COc1cccc(-c2cc(C(F)(F)F)c(C#N)c(=O)[nH]2)c1 | – | inconclusive: 2.51 µM [inhibitor, partial curve, poor fit]
8 | Cc1cc(C)c2oc(C(=O)NCc3ccccc3)cc(=O)c2c1 | inactive: 16.1% | –
9 | Cn1ccnc1Sc1nc2ccccc2nc1NS(=O)(=O)c1ccccc1 | – | inconclusive: 0.199 µM [inhibitor, full curve, poor fit]
10 | COc1cccc(OC)c1C1=Nn2c(nnc2-c2ccccc2O)SC1 | inactive: -3.99% | –
11 | OCC#CCSc1nnc(-c2ccncc2)o1 | – | inconclusive: 2.82 µM [inhibitor, partial curve]
12 | O=C(CCSCCC(=O)NCc1ccc(F)cc1)NCc1ccc(F)cc1 | – | inconclusive: 3.16 µM [inhibitor, single point]
13 | COc1ccc(S(=O)(=O)C(C#N)c2nc3ccccc3nc2N2CCCCC2)cc1 (stereo not drawn) | – | inconclusive: 17.8 µM [inhibitor, single point]
14 | O=C(COC(=O)c1ccc([N+](=O)[O-])s1)Nc1ccccc1 | – | inconclusive: 39.8 µM [inhibitor, single point]
15 | Cc1ccc(-n2cccc2C(=O)NS(=O)(=O)c2ccc(C)cc2)cc1 | inactive: 1.01% | –
16 | O=C(CN1C(=O)CC(c2ccco2)Sc2ccccc21)NCc1ccc2c(c1)OCO2 (stereo not drawn) | – | inconclusive: 28.2 µM [inhibitor, single point]
17 | CCOC(=O)CC(=O)CSc1[nH]c(=O)cc(C)c1C#N | – | inconclusive: 31.6 µM [inhibitor, partial curve]
18 | O=C(COC(=O)c1c2c(nc3ccccc13)CCCCC2)NCc1ccc2c(c1)OCO2 | – | inconclusive: 22.4 µM [inhibitor, single point]
19 | COc1ccc(CCNC(=O)COC(=O)/C=C/c2cccs2)cc1 | – | inconclusive: 44.7 µM [inhibitor, single point]
20 | Cc1cc(C)n(-c2nc3ccccc3nc2N2CCN(S(=O)(=O)c3ccc(F)c(C)c3)CC2)n1 | inactive: 2.15% | –
21 | O=C(Cn1c(-c2ccccc2)c[n+]2ccsc12)c1ccccc1 | – | inconclusive: 0.224 µM [inhibitor, full curve, poor fit]
22 | COc1cc(NC(=S)NCCC(c2ccccc2)c2ccccc2)cc(OC)c1 | inactive: 7.1% | –
23 | Cn1cccc1/C=N/NC(=O)C(O)c1ccccc1 (stereo not drawn) | inactive: 1.41% | –

Reprinted at random: five records from the list
Row | SMILES | activity change, negative = inhibition | Potency
2 | COc1ccc(C(=C2C(=O)Nc3ccccc32)c2ccc(OC)cc2)cc1 | – | inconclusive: 15.8 µM [inhibitor, single point]
1 | Cc1ccc2occ(C3N[C@H](C(=O)O)CS3)c(=O)c2c1 (stereo partly drawn) | inactive: 0.873% | –
5 | Oc1ccccc1Oc1c(F)c(F)nc(N2CCCC2)c1F | – | inconclusive: 35.5 µM [inhibitor, partial curve]
20 | Cc1cc(C)n(-c2nc3ccccc3nc2N2CCN(S(=O)(=O)c3ccc(F)c(C)c3)CC2)n1 | inactive: 2.15% | –
19 | COc1ccc(CCNC(=O)COC(=O)/C=C/c2cccs2)cc1 | – | inconclusive: 44.7 µM [inhibitor, single point]

(continued)

Row | SMILES | activity change, negative = inhibition | Potency
24 | COc1ccccc1/C=C/C=N/n1c(COc2ccccc2)n[nH]c1=S | inactive: -5.08% | –
25 | Cc1sc2nc(-c3cccs3)nc(N3CCCN(C)CC3)c2c1C | – | inconclusive: 39.8 µM [inhibitor, single point]
26 | Cc1cc2nc(-c3ccc(SCc4ccccc4C#N)nc3)[nH]c2cc1C | inactive: -5.73% | –
27 | CCC(=O)c1ccc(N2CCN(C(=O)c3ccc(Br)cc3)CC2)c(F)c1 | – | inconclusive: 0.447 µM [inhibitor, full curve]
28 | O=C(N/N=C/C=C\c1ccccc1[N+](=O)[O-])c1cc(-c2ccc3ccccc3c2)n[nH]1 | – | inconclusive: 31.6 µM [inhibitor, single point]
29 | C/C=C(/C)C(=O)O[C@@H]1c2c(ccc3ccc(=O)oc23)O[C@@H]1C(C)(C)OC(C)=O | – | inconclusive: 3.16 µM [inhibitor, single point]
30 | CCOC(=O)Cc1ccc(NC(=O)c2ccc(C(C)(C)C)cc2)cc1 | – | inconclusive: 39.8 µM [inhibitor, partial curve, poor fit]
31 | C=CCNC(=O)c1cc(-c2cccs2)on1 | inactive: 9.32% | –
32 | COCCCN1CCN(C2Cc3ccccc3Sc3ccc(Cl)cc32)CC1 (stereo not drawn) | – | inconclusive: 35.5 µM [inhibitor, single point]
33 | O=C(CCS(=O)(=O)c1ccccc1)Nc1nnc(C(F)(F)F)s1 | inactive: 19.3% | –
34 | COc1ccc([C@@H]2CC(=O)c3c(O)cc(O[C@@H]4O[C@H](CO[C@@H]5O[C@@H](C)[C@H](O)[C@@H](O)[C@H]5O)[C@@H](O)[C@H](O)[C@H]4O)cc3O2)cc1 | inactive: -4.85% | –
35 | CC(C)NC[C@@H](O)c1ccc(O)c(O)c1 | – | inconclusive: 8.91 µM [inhibitor, partial curve]
36 | COC(=O)C1=CN(Cc2cccs2)C=C(C(=O)OC)C1c1cccc(Cl)c1 | – | inconclusive: 14.1 µM [inhibitor, partial curve, poor fit]
37 | CN(Cc1cn(C)c2ccccc12)C(=S)Nc1cc(F)cc(F)c1 | – | inconclusive: 10 µM [inhibitor, single point]
38 | CS(=O)(=O)N1CCN(c2ccc(NC(=O)c3cccnc3Cl)cc2)CC1 | – | inconclusive: 4.47 µM [inhibitor, single point]
39 | c1ccc(-c2noc(-c3ccc4ccccc4c3)n2)nc1 | – | inconclusive: 17.8 µM [inhibitor, single point]
40 | CC(=O)C1=C(C)OC2(O)c3ccccc3C(=O)C12O (stereo not drawn) | – | inconclusive: 17.8 µM [inhibitor, partial curve]
41 | COc1ccc(Cn2c3nc4ccccc4nc3c3c(=O)n(Cc4ccco4)c(C)nc32)cc1 | – | inconclusive: 35.5 µM [inhibitor, partial curve]
42 | O=C(N/N=C/c1ccccn1)c1cc(-c2ccc3ccccc3c2)n[nH]1 | inactive: -2.19% | –
43 | COc1ccc(CC(=O)N(CC2CCCO2)c2nc3ccccc3s2)cc1 (stereo not drawn) | – | inconclusive: 44.7 µM [inhibitor, single point]
44 | O=C(NNC(=O)c1cc2cc3ccccc3nc2s1)c1cccc(C(F)(F)F)c1 | – | inconclusive: 17.8 µM [inhibitor, partial curve]
45 | O=C(O)CSc1nnc(CSc2nc3ccccc3s2)n1-c1ccccc1 | – | inconclusive: 8.91 µM [inhibitor, single point]
46 | Cc1ccc2nc3c(cc(S(=O)(=O)c4ccccc4)c(=N)n3Cc3ccco3)c(=O)n2c1 | inactive: -2.56% | –

Row | SMILES | activity change, negative = inhibition | Potency
47 | O=c1cc2oc3cc(O)c(O)cc3c(-c3ccccc3O)c-2cc1O | – | active: 0.891 µM
48 | CC(C)C(NC(=O)c1ccc(S(=O)(=O)N2CCOCC2)cc1)c1nc2ccccc2[nH]1 (stereo not drawn) | – | inconclusive: 1.78 µM [inhibitor, partial curve, poor fit]
49 | O=C(O)c1cc(-c2ccco2)nc2ccccc12 | – | active: 25.1 µM
50 | Cc1cccc(NC(=O)CSc2ccc(-c3ccco3)nn2)c1C | inactive: 14.1% | –
51 | Cc1ccc(C(=O)N2NC(c3ccc(F)cc3)C3C(=O)N(c4ccc(C)c(C)c4)C(=O)C32)cc1 (stereo not drawn) | – | inconclusive: 3.55 µM [inhibitor, single point]
52 | CC(C)OCCCNc1nc(-c2ccccc2)nc2ccccc12 | inactive: 3.46% | –
53 | CCCCOCCCNS(=O)(=O)c1ccccc1 | – | inconclusive: 0.0011 µM [inhibitor, full curve, poor fit]
54 | O=C(CC1SC(=Nc2ccccc2F)N(CCN2CCOCC2)C1=O)Nc1ccc(F)cc1F (stereo not drawn) | – | inconclusive: 28.2 µM [inhibitor, single point]
55 | CCOc1cc(/C=C2/NC(=O)N(CC(=O)OC)C2=O)ccc1O | – | inconclusive: 0.224 µM [inhibitor, full curve, poor fit]
56 | Cc1ccc(-c2csc(N(CCCN(C)C)C(=O)c3ccco3)n2)cc1 | – | inconclusive: 1 µM [inhibitor, full curve]
57 | COc1nc(C)ccc1-c1noc(-c2cccs2)n1 | – | inconclusive: 8.91 µM [inhibitor, single point]
58 | CC(=O)c1ccc(NC(=O)N2CCCC(C(=O)c3ccc4c(c3)OCO4)C2)cc1 (stereo not drawn) | – | inconclusive: 20 µM [inhibitor, single point]
59 | O=C(OCc1ccccc1F)c1cnc(Cl)c(Cl)c1 | inactive: 13.8% [at 12.4 µM] | –
60 | COc1ccc(OC)c(S(=O)(=O)ON2C(=O)c3ccccc3C2=O)c1 | inactive: 5.64% | –
61 | COc1ccc(CCN(C)C(=O)CSc2nnnn2C)cc1OC | – | inconclusive: 0.251 µM [inhibitor, full curve, poor fit]
62 | COc1ccccc1-n1nnnc1SCC(=O)NCC1CCCO1 (stereo not drawn) | inactive: 15.2% | –
63 | CCOC(=O)c1nn(-c2ccc([N+](=O)[O-])cc2)cc1O | – | inconclusive: 4.47 µM [inhibitor, partial curve, poor fit]
64 | CCN(CC)S(=O)(=O)c1cccc(C(=O)N/N=C/c2c(C)nn(-c3ccccc3)c2Cl)c1 | – | inconclusive: 28.2 µM [inhibitor, single point]
65 | CC(C)c1ccc(NC(=S)NCCc2c[nH]c3ccccc23)cc1 | – | inconclusive: 5.62 µM [inhibitor, partial curve, poor fit]
66 | C[C@]12CS(=O)(=O)C[C@H]1SC(=S)N2c1ccccc1 | – | inconclusive: 44.7 µM [inhibitor, single point]
67 | CCC/C=C(\CCC)C(NS(=O)(=O)c1ccc(C(F)(F)F)cc1)c1ccccc1 (stereo not drawn) | – | inconclusive: 4.47 µM [inhibitor, partial curve]
68 | O=C(N/C(=C/C=C/c1ccccc1)C(=O)N1CCOCC1)c1ccccc1Br | – | inconclusive: 2.24 µM [inhibitor, full curve, poor fit]
